The target of this test is T1, DEP domain containing 1 (DEPDC1) (human (endogenous in liposarcoma cells)) (UniProt Q5TB30).
T1 sequence: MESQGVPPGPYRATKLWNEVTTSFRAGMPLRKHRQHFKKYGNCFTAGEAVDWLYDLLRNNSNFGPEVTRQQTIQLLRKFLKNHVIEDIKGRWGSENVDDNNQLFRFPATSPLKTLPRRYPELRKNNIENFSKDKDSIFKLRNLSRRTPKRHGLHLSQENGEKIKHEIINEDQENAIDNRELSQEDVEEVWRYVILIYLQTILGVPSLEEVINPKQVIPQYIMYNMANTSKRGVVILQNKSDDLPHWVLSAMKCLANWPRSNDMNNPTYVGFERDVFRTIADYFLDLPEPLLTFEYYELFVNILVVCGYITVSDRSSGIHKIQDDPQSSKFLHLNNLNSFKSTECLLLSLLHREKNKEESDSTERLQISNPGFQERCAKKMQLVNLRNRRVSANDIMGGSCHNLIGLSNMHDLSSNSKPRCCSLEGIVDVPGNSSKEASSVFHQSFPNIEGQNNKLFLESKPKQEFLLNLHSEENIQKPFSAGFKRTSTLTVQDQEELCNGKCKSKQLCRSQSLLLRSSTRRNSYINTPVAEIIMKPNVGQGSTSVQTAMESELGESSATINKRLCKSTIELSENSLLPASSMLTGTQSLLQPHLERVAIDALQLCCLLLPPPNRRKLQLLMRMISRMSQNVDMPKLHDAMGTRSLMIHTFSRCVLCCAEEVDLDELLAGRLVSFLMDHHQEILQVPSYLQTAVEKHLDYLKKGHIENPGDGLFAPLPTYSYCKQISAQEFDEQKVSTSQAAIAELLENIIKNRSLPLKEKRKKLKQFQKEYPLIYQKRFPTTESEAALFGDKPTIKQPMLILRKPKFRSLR
Put plainly: co-IP; cells supernatant of liposarcoma cells bound to anti-DEPDC1 antibody (abcam, ab197246) or normal rabbit IgG on a rotating shaker at 4°C; kit (Absin); washed with IP washing buffer; KIF20A identified in the precipitate.

Sequences of proteins named here, by UniProt entry; tags and fusion partners are left off.
UniProt O95235: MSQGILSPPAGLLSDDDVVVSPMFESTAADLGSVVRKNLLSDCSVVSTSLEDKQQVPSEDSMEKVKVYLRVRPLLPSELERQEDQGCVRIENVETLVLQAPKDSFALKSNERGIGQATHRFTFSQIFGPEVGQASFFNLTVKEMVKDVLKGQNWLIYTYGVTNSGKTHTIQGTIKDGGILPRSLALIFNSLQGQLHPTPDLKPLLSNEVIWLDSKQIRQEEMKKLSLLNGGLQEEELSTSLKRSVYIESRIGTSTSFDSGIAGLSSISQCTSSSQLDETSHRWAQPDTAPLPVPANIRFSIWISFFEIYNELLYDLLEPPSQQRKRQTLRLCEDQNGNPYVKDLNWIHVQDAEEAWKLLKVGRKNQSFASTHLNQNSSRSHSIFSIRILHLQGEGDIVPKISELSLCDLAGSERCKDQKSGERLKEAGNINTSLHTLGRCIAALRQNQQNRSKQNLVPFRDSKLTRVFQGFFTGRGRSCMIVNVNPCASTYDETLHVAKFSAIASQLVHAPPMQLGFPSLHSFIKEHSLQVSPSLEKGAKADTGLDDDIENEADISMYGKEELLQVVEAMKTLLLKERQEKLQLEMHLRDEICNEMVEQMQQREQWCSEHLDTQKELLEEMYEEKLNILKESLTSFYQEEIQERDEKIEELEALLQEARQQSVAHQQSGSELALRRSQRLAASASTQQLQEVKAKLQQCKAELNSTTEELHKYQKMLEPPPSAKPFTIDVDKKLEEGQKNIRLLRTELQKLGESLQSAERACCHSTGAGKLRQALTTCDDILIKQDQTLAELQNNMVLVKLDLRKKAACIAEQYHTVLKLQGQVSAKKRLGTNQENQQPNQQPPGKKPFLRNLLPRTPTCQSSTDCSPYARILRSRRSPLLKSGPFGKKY

No constants are given. Whether binding was seen depends on the method and setting. In cells and extracts the contact can be indirect. Some entries that bind do so weakly or less than the wild type.

The source of these data is paper PMC12208836.

On to “Kinesin family member 20A (KIF20A) (from UniProt O95235 1-890)”, for which the binding result is “binds”.
